Measurements taken from paper PMC5597121, “The human bitter taste receptor T2R38 is broadly tuned for bacterial compounds” (PLoS ONE, 2017).

Sequences of proteins named here, by UniProt entry; tags and fusion partners are left off.
UniProt P59533, whole entry A49P/I296V: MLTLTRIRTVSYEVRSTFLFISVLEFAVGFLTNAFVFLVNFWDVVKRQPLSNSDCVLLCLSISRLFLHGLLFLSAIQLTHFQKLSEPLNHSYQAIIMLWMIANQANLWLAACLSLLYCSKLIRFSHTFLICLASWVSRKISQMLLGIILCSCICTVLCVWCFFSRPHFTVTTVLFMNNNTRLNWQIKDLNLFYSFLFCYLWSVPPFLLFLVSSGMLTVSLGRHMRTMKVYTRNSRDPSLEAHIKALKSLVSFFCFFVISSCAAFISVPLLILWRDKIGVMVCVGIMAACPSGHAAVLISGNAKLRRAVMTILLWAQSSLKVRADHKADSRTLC

Tests used:
T2R38 = T2R38 (Homo sapiens, UniProt P59533, A49P/I296V); test: Single cell calcium imaging, Peakrapid cells (Gα16gustducin44) transiently transfected with T2R38; assay type: cell-based
[1] = system: mock transfected cells (empty vector); test: Single cell calcium imaging, control: mock transfected (empty vector) Peakrapid cells; assay type: cell-based, human; settings: PTC 0.1 mM, reference wells of each experiment

Question: With `CSSC` as the compound, how does the “surface covered by activated cells (given as fraction)” value (“surface covered … (given as fraction)” below) (T2R38; dimethyldisulfide 0.00251189, log10[ ] -2.6, experiment 6) read?
Answer: The value was 0.0352 and 0.0749.

Question: What does the source list for `CS` [methylmercaptan]?
Answer: percentage of surface covered by activated cells (T2R38; méthylmercaptan 0.00316228, log10[ ] -2.5): 0.57, 0.68, 0.33, 0.56, 0.23, 1.70, 0.61, 1.02%; percentage of surface covered by activated cells (T2R38; méthylmercaptan 0.0075, log10[ ] -2.12494): 2.27, 1.86, 1.56, 1.81, 2.33, 2.50, 3.22, 4.68%

Question: For `NC(=S)Nc1ccccc1` [PTC, phenylthiocarbamide, reference compound], which “surface covered … (given as fraction)” value (T2R38; PTC 0.1 mM, reference wells of each experiment) is on record?
Answer: The value was 0.1726, 0.3159, 0.3026, 0.2925, 0.1701, 0.2565, 0.2452, 0.2538.

Question: What about the “surface covered … (given as fraction)” value [1] of the same compound?
Answer: The value was 0.002778, 0.002081, 0.004778, 0.005498, 0.003497, 0.005048, 0.006106.

Question: With `CCC(C)=O` [2-butanone] as the compound, how does the “percentage of surface covered by activated cells” value (shortened to “percentage of surface covered”) (T2R38; 2 butanone 0.03, log10[ ] -1.52) read?
Answer: The value was 5.70, 4.51, 18.44, 19.86, 9.34, 8.53%.

Question: And the “percentage of surface covered” value (T2R38; 2 butanone 0.08, log10[ ] -1.09691)?
Answer: The value was 5.12, 6.15, 19.65, 13.75, 12.50, 13.21%.

Question: For `CC(C)C=O` [2-methylpropanal], which “percentage of surface covered” value (T2R38; 2 méthyl propanal 0.0251189, log10[ ] -1.6) is on record?
Answer: The value was 53.41, 56.76, 34.34, 35.99, 10.44, 25.45, 49.32, 57.92%.

For part of its entries the source gives two or more results. They are shown here; other results are not. An entry can have further records. The values listed for one entry do not match, cause unknown; dose, time, organism, isomer or construct need not be as stated for each record.
